At least one peptide structure holds a part that was inferred or is arguable (an end, a ring closure or a residue). Residues, ends and D or L forms follow the SMILES beside them. No end group written: not given here.
Tests used:
C. albicans 18804 = assay: Growth curve of C. albicans 18804 in suspension culture in YSM (FIG. 3, FIG. 4); type: cell-based, Candida albicans; conditions: 220 μg per ml in YSM
Candida albicans = assay: Growth of Candida albicans on denture acrylic strips, His-7 without precoating; type: cell-based; conditions: no precoating
Candida Albicans 18804 = assay: Proliferation of Candida albicans 18804 on denture acrylic strips, His-7 with pretreatment of strips; type: cell-based

| Molecule | effect on growth in suspension culture (FIG. 4) (C. albicans 18804) | growth (Candida albicans; at 17.5 hours) | Optical Density at 600 nm (Candida albicans; overnight in MES-YSM with 1.5 mg per ml His-7, then YSM without additives, 0 hours of incubation) | Optical Density at 600 nm (Candida Albicans 18804; after transfer to fresh YSM without His-7, 15 hours of incubation) | growth in the YSM media containing His-7 (Candida Albicans 18804; precoated strips, YSM containing 1.5 mg per His-7, 24 hours incubation at 37° C.) | delay in growth (Candida Albicans 18804; precoating and/or incubation with His-7) [h] | incubation time at which cells are just beginning to divide (C. albicans 18804) [h] |
| --- | --- | --- | --- | --- | --- | --- | --- |
| N[C@@H](Cc1c[nH]cn1)C(=O)N[C@@H](Cc1c[nH]cn1)C(=O)N[C@@H](Cc1c[nH]cn1)C(=O)N[C@@H](Cc1c[nH]cn1)C(=O)O [His-4, tetra-L-histidine] (H-HHHH-OH) | does effect growth but much less than His-7 | – | – | – | – | – | – |
| HHHHHHH [His-7, hepta-L-histidine] | marked effect | virtually no growth | .01 | .02 | no growth | ≥ 24 | 35 |
